Data on 68 sequences can be found in PubChem BioAssay AID1508600 (Functional Genomics Laboratory (NCATS/FGL), 2020).

Hit rate of the full screen: of about 53,000 sequences, about 3,700 (7%) were called active.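 The calls were made as follows: active = gene knockdowns whose robust z-score for IL-1 alpha signal is at least 2 or at most -2, so actives lie on both sides; inactive = the rest.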 The list shows a part of the results.

The nature of the assay: Components of the Cytosolic LPS Sensing Pathway: Gene Identification via Genome-wide siRNA Screen.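 Also: robust z of the log signal after scaling to non-targeting control siRNA wells of the plate.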 The settings on record: RAW264.7 macrophages, IL-1a HTRF, actives lie on both sides, screened at 100 nM (by protocol), cells primed 5 h with Pam3CSK4 first. The gist of the method: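 Using IL-1a HTRF as read-out, the screen measured release from RAW264.7 cells after 48h siRNA knockdown (100 nM), 5 h Pam3CSK4 priming and 24 h cytosolic LipidA. Values were expressed relative to negative-control wells as robust z-scores.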
As to CGAUCCCAUGUUGCCUAAUTT against Fut11, the z-score was inactive: -0.602.
Then GGCUUGUUACCACAUGCUGTT against Fermt3, with inactive: -1.46.
Then GCCUAUGGGUCAUUUCAAATT against Dock11, with inactive: -0.968.
For “GCAGGGUAUUGUCAAUGGCTT against 0610040J01Rik”, the z-score was inactive: 0.103.
Then CCUUUACUGUCCAUUCCGATT against Stxbp2, with inactive: -0.533; and GGUUCUGUUAAUGUACCAUTT against Cd53, with inactive: 0.833; and GCCGAGCAGUUACUUGAGATT against Kif18b, with inactive: -1.28.
Then GGAGCUUCACUAAGUAACATT against Zfp239, with inactive: -0.594; and GGAAAGAAAAGCCUUAGAATT against Nbeal1, with inactive: 0.386.
Under GCGAGUCUAUGUGUUCCCUTT against Cox4i2 stands inactive: 0.187; under GGCCAACUGAUUAAGAAACTT against Chrnb1, inactive: 0.264.
In the case of GGUAUCAUGGAGGAGAUGGTT against Lhx9, the z-score is inactive: -0.859.
Under GGAGGCCAAAGGACUGAUCTT against Hectd4 stands inactive: 1.56; under GGCCUUUAUCAGCGGUGAUTT against Srd5a2, inactive: -1.87.
Under GGUGUCUUUGCUCUUAAUUTT against Sike1 stands inactive: 0.277; under CCAUGUCAACGACCAUCAUTT against Glis2, inactive: 0.189; under GGAAAUAUAUGUCAUGUCATT against Nars, active: 2.37.
Then GCCAAAGUAGCAUUAGUGATT against Dip2b, with inactive: -1.39; and GGUGAACUUUACCUUCAACTT against Mov10, with inactive: 0.867; and GGAGGACAGUAGGUGGCAATT against Hexim1, with inactive: -0.218.
GCGAUUUAUUGCCAAGCCCTT against Cers5: the z-score was inactive: 0.596.
With GGUCAAAUAUGGAGAUCUUTT against Atp2b3, the z-score was inactive: 1.39.
Under GCUGAUGUCUCAACCUAGATT against Zkscan2 stands inactive: -1.72; under GGUGGAGUUUCUGAAACAGTT against Supt16, inactive: -0.861; under GGUUUACCAGAAACACUGATT against Fam162a, inactive: 1.37.
Then CCCAAUGGUUGUACCAAUATT against Zp3r, with inactive: 0.656; and GGGAACUCAAAGAAGAGAGTT against Lysmd2, with inactive: 0.515; and GUGGAUUGAGGAUGGAAUCTT against Gng13, with inactive: 1.86.
Then GGUCACAUGUCUCUUGUGATT against Ankrd33, with inactive: -0.661.
With GCUAUUCUGAUGCGUGGAGTT against Coq2, the z-score is inactive: -1.24.
Then GCUAGUCCGGUACUUCUUGTT against Bckdk, with inactive: 0.603; and CGUGACUACACCAUCAAAGTT against Adgrg1, with inactive: 1.69; and GGAAAGGUUUUCAUCAACATT against Pih1d1, with inactive: -1.61.
Then CGCGGAAACUCUCCACUUATT against Psme4, with inactive: -1.18.
Under CGGACUCAGUCAUCAUUGCTT against Atf7 stands inactive: -1.46; under GUAAAUCCAAUUCCUCAGCTT against Vax1, inactive: 0.152; under GGUGCAGAAAGAGAGAAGATT against Mtpap, inactive: 0.019.
As to GGCUGCACUAGACGAAUGCTT against Rrp1b, the z-score was inactive: 0.362.
In the case of GGUCAUCGACUUCUCCAAGTT against Grik5, the z-score was inactive: 0.99.
Under GGCAUUGUCACUGUGUCUGTT against Sphk2 stands inactive: -1.59; under GCACACUACGGUCCAUCUCTT against Xkr4, inactive: -1.19.
Under CGAAAAAAAGUCCAUAAAGTT against Nifk stands inactive: -0.0901; under GGCUUUUAACACCUUCAUUTT against Clptm1l, inactive: 0.495; under GGGAGAAACUAUUUAGUCUTT against Inhbe, inactive: 0.145.
For GGCGAGGAGAAAAGAGUUUTT against Wfdc12, the z-score is inactive: 2.
As to GGGAUGUCUUGGAACAUGCTT against Pate14, the z-score is inactive: 1.19.
For the sequence GGACCAUGCUGGAUACUAUTT against Yrdc, the z-score was inactive: 1.74.
Under CCCAUUAUUAACGCGAAGGTT against Pfn4 stands inactive: 0.907; under GCUGCUUAAUGCCAGGCGATT against Snapin, inactive: -0.251.
In the case of GGAAAAGAAGAUGAACAAGTT against Slc24a1, the z-score is inactive: 0.838.
With CCUUAACUCACUUCAUAAUTT against Vps35, the z-score is inactive: 0.542.
As to GGUUCUCAUGAACAGUGAGTT against Tm9sf4, the z-score was inactive: 1.02.
Under GGAUGACAACAACACUCUGTT against Cacna1s stands inactive: -1.09.
With “GCUCUUGGUCCGUCUUCAGTT against 6030452D12Rik”, the z-score is inactive: -1.76.
Then GGAAGUACCAGGAAGCUGATT against Stmn4, with inactive: -1.4; and GGAAAAUAAGGACACUAGUTT against Zfx, with inactive: -1.09; and GCAGGAUCAGCUGUUCACATT against Wdr24, with inactive: -1.7.
As for GGGAAUCAGAUUUGACCUUTT against Mrpl19, the z-score is inactive: -0.353.
Then GGACACAAUGACAAAGUCCTT against Wdfy2, with inactive: -1.51; and GGGCUUCAUGGUUCAAACATT against Ppil3, with inactive: -1.11.
Under GGAGGUCCACCUCAUUCUGTT against Gdap1 stands inactive: -0.485.
Consider CCUAGAUUGAAAAUUGUCATT against Zfp974, for which the z-score was inactive: -1.55.
For the sequence GCCUGGCAGAUAUCGCUCUTT against Homez, the z-score was inactive: -0.556.
Consider GGUUGUGGACACAUCCAAATT against Aacs, for which the z-score is active: 2.08.
Regarding GGAAUCAUGCUGAAAGAGATT against Apom, the z-score is inactive: -0.123.
Under GGAACCUGGUAGGUCAGAATT against Olfr156 stands inactive: 0.421; under “GGCUGAAGAGCCUAGAGAATT against 1700120K04Rik”, inactive: -0.124.
On to “GGUGGUUAAACCCAGACUGTT against 2310067E19Rik”, for which the z-score was inactive: 0.544.
